Test results: PubChem BioAssay AID504834 (National Center for Advancing Translational Sciences (NCATS), 2011)
In all, about 320,000 compounds went through this assay and about 22,000 (6.9%) were called active. This list was built around the results that the source calls inconclusive (neither active nor inactive); the mix of calls is not that of the screen. Calls come from the whole dose curve; as a rule, active = well fitted inhibition curve with a large enough effect; inconclusive = small, poorly fitted or top-dose-only effect, or another doubt; inactive = no such curve, though single readings can be large or run the other way. Potencies of inconclusive entries are doubtful fits and often do not repeat.

assay: Primary qHTS for delayed death inhibitors of the malarial parasite plastid, 96 hour incubation; conditions: P. falciparum luciferase reporter growth; series mostly up to 28.7 µM
Procedure, shortened: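 Erythrocytes infected with luciferase-expressing P. falciparum were dispensed at 2% hematocrit and 0.05% parasitemia (final), then incubated with compounds 96 hours at 37 C in 5% CO2. Luminescence after detection reagent addition reported growth.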
% is set by controls: 0 for no effect and ±100 for the full control effect; potency is the fitted concentration of half-maximal effect.

Row | SMILES | Potency | activity change, negative = inhibition
1 | C[C@@H](NCCCc1cccc(C(F)(F)F)c1)c1cccc2ccccc12 | active: 12 µM | –
2 | CC(=O)N1CCc2cc(S(=O)(=O)CCC(=O)Nc3cccc(F)c3)ccc21 | inconclusive: 0.233 µM [inhibitor, full curve, poor fit] | –
3 | CC(C)(CNC(=O)c1cccs1)N1CCOCC1 | inconclusive: 8.28 µM [inhibitor, partial curve, poor fit] | –
4 | CCOc1ccc(NC(=O)CN(C)C(=O)c2cc(C)on2)cc1OCC | inconclusive: 18.5 µM [inhibitor, single point] | –
5 | Cc1noc(C)c1S(=O)(=O)N1CCC(C(=O)N2CCC(C)CC2)CC1 | inconclusive: 11.7 µM [inhibitor, single point] | –
6 | C=CCN=C1S/C(=C/c2cccc([N+](=O)[O-])c2)C(=O)N1CC=C | inconclusive: 18.5 µM [inhibitor, single point] | –
7 | CCCCc1ccc(/C=C2\C(=O)c3ccccc3C(O)=C2C(=O)OCC)cc1 | inconclusive: 18.5 µM [inhibitor, single point] | –
8 | CN1CCN(S(=O)(=O)c2ccc(N3CCN(c4ccc(O)cc4)CC3)c([N+](=O)[O-])c2)CC1 | inconclusive: 13.1 µM [inhibitor, single point] | –
9 | Cc1ccc(NC(=S)Nc2ccc(F)cc2)cc1 | inconclusive: 18.5 µM [inhibitor, single point] | –
10 | O=C(c1cc(COc2cccc(C(F)(F)F)c2)on1)N1CCC(Oc2cccnc2)CC1 | inactive | –
11 | Cc1cc(OCc2cc(C(=O)O)oc2C)c2c3c(c(=O)oc2c1)CCCC3 | inconclusive: 18.5 µM [inhibitor, single point] | –
12 | Cc1cc(C)c2nc(-c3cccc(Cl)c3)c(C)c(C(=O)N3CCOCC3)c2c1 | inconclusive: 18.5 µM [inhibitor, single point] | –
13 | Cc1ccc(S(=O)(=O)N2[C@@H](c3ccccc3)C(C(=O)O)=CC[C@H]2c2ccc(C(C)C)cc2)cc1 | inconclusive: 18.5 µM [inhibitor, single point] | –
14 | CCOc1c2ccoc2nc2c(OC)c(OC)ccc12 | inactive | –
15 | COc1ccccc1N1CCN(C(=O)CN(c2ccccc2OC)S(=O)(=O)c2ccccc2)CC1 | active: 1.31 µM | –
16 | CN(C)/C=C(/C(=O)c1ccccc1)n1cncn1 | inactive | –
17 | Cc1ccccc1NC(=S)NNc1ncc(C(F)(F)F)cc1Cl | inactive | –
18 | COc1ccccc1Oc1nc2ccccn2c(=O)c1/C=C(\C#N)C(=O)Nc1c(C)n(C)n(-c2ccccc2)c1=O | inconclusive: 10.4 µM [inhibitor, single point] | –
19 | Cc1c(C(=O)O)cccc1-n1c(C)cc(/C=N/Nc2ccc([N+](=O)[O-])cn2)c1C | inconclusive: 0.0083 µM [inhibitor, full curve, poor fit] | –
21 | CCc1nnc(SCC(=O)NCCC2=CCCCC2)nc1CC | inactive | –
22 | O=C(CSc1ncccn1)N1CCN(Cc2ccccc2)CC1 | inactive | –
23 | Cc1ccc(C)c(N2CCN(C(=O)Cc3c(C(=O)O)[nH]c4ccc(Cl)cc34)CC2)c1 | inactive | –
24 | O=C(CCCN1C(=O)C(c2ccccc2)Oc2cccnc21)Nc1cccc(F)c1 (stereo not given) | inconclusive: 9.28 µM [inhibitor, single point] | –

Row | SMILES | Potency | activity change, negative = inhibition
25 | O=C(O)/C=C/C(=O)Nc1ccc(N2CCOCC2)nc1N1CCOCC1 | inactive | –
26 | COc1ccccc1CN1CCNC(=O)C1CC(=O)NCC1CCOCC1 (stereo not given) | active: 9.28 µM | –
27 | NC(=O)c1ccsc1NC(=O)COC(=O)C1CCCN1C(=O)c1cccs1 (stereo not given) | inconclusive: 11.7 µM [inhibitor, partial curve, poor fit] | –
28 | COc1ccc(C(C)NC(=O)c2cccc([N+](=O)[O-])c2)cc1OC (stereo not given) | inconclusive: 7.38 µM [inhibitor, single point] | –
29 | O=C(COc1ccccc1Cl)Nc1ccccc1C(=O)N1CCOCC1 | inconclusive: 14.7 µM [inhibitor, partial curve, poor fit] | –
30 | COc1cc(C(=O)Nc2cccc(NC(=O)c3ccccc3)c2)cc(OC)c1OC | inconclusive: 0.0465 µM [inhibitor, full curve, poor fit] | –
31 | COc1ccccc1-c1ccc2nnc(SC)n2n1 | inactive | –
32 | Cn1ccnc1CN1CCCCC1C(=O)Nc1ccc(Oc2cccnc2)cc1 (stereo not given) | active: 13.1 µM | –
33 | CC1CCc2nc3ccc(S(=O)(=O)N4CCC(C(=O)NC(C)c5ccccc5)CC4)cc3c(C(=O)O)c2C1 (stereo not given) | inconclusive: 0.0828 µM [inhibitor, full curve, poor fit] | –
34 | CC1(C)CC(=O)C(C=NCCN2CCN(C3CC(=O)N(c4cccc(Br)c4)C3=O)CC2)=C(O)C1 (stereo not given) | inactive | –
35 | CCOC(=O)c1c(NC(=S)Nc2ccc(OCC)cc2)sc2c1CCN(C)C2 | active: 3.7 µM | –
36 | CCOC(=O)c1c(C)[nH]c(C(=O)NNC(=O)c2ccc(Br)cc2)c1C | inactive | –
37 | CCn1cnc2c1c(=O)n(CC(=O)Nc1ccc(C(N)=O)cc1)c(=O)n2Cc1ccccc1 | active: 13.1 µM | –
38 | Cc1noc(C(=O)N2CCN(Cc3ccc4c(c3)OCO4)CC2)c1Cl | inactive | –
39 | CCOc1ccccc1N(C)C(=O)C1CCN(S(=O)(=O)c2cccc3nonc23)CC1 | inconclusive: 7.38 µM [inhibitor, partial curve, poor fit] | –
40 | CCOc1cc(Cl)c(S(=O)(=O)NCCCn2ccnc2)cc1Cl | inconclusive: 18.5 µM [inhibitor, single point] | –
41 | O=C(CCN1C(=O)C2C3C=CC(C3)C2C1=O)NCCc1ccccc1 (stereo not given) | inconclusive: 11.7 µM [inhibitor, single point] | –
42 | COc1ccc(NC(=O)C2CCCN(S(C)(=O)=O)C2)cc1 (stereo not given) | inconclusive: 18.5 µM [inhibitor, partial curve, poor fit] | –
43 | O=C(Nc1ccc(S(=O)(=O)N2CCN(Cc3ccccc3)CC2)cc1)c1cnccn1 | inconclusive: 16.5 µM [inhibitor, single point] | –
44 | Cn1cccc1Cc1nnc(SCC(=O)N2CCOCC2)n1CCc1ccccc1 | inconclusive: 10.4 µM [inhibitor, single point] | –
45 | Cc1ccc2c(c1)[nH]c1c(=O)n(CCCN3CCOCC3)cnc12 | inconclusive: 11.7 µM [inhibitor, single point] | –
46 | COCCCN1C(=O)/C(=C/c2ccc(CNS(=O)(=O)c3ccccc3)o2)C(C(=O)OC)=C1C | – | inactive: 24.7% [at 1.15 µM]
47 | Cc1cccc(OCC(=O)Nc2ccccc2C(=O)N2CCOCC2)c1 | inconclusive: 10.4 µM [inhibitor, single point] | –
48 | Cc1cc(F)ccc1S(=O)(=O)NCC(c1ccc2c(c1)OCO2)N1CCOCC1 (stereo not given) | inconclusive: 11.7 µM [inhibitor, single point] | –

3 compounds drawn at random from the list so far, as already listed:
Row | SMILES | Potency | activity change, negative = inhibition
33 | CC1CCc2nc3ccc(S(=O)(=O)N4CCC(C(=O)NC(C)c5ccccc5)CC4)cc3c(C(=O)O)c2C1 (stereo not given) | inconclusive: 0.0828 µM [inhibitor, full curve, poor fit] | –
46 | COCCCN1C(=O)/C(=C/c2ccc(CNS(=O)(=O)c3ccccc3)o2)C(C(=O)OC)=C1C | – | inactive: 24.7% [at 1.15 µM]
29 | O=C(COc1ccccc1Cl)Nc1ccccc1C(=O)N1CCOCC1 | inconclusive: 14.7 µM [inhibitor, partial curve, poor fit] | –

(further entries)

Row | SMILES | Potency | activity change, negative = inhibition
49 | CCCCCc1c(O)nc(SCCN(C)C)[nH]c1=O | inactive | –
50 | COCC(=O)N1CCC(Oc2ccc(C(=O)N3CCN(C)C[C@@H]3C(C)C)cc2)CC1 | inactive | –
51 | Cc1ccc(NC(=O)CSc2nnc(CNC(=O)C34CC5CC(CC(C5)C3)C4)n2-c2ccc(F)cc2)cc1 | inconclusive: 10.4 µM [inhibitor, single point] | –
52 | CCC(=O)NNC(=O)c1cc(COc2cc(Cl)cc(Cl)c2)on1 | inactive | –
53 | O=C(CSc1n[nH]c(-c2ccccc2)n1)NC1CCCCC1 | inactive | –
54 | Fc1ccccc1N1CCN(C(c2cccs2)c2nnnn2CCc2ccccc2)CC1 (stereo not given) | inconclusive: 0.262 µM [inhibitor, partial curve, poor fit] | –
55 | CN(Cc1ccccc1)C(=O)COC(=O)c1ccc(Cl)c(N)c1 | inconclusive: 2.94 µM [inhibitor, full curve, poor fit] | –
56 | Cc1ccc(NC(=O)CN2C(=O)NC(C)(c3ccc(Cl)cc3)C2=O)cc1S(=O)(=O)N1CCOCC1 (stereo not given) | inconclusive: 18.5 µM [inhibitor, single point] | –
57 | COC(=O)c1c(NC(=O)CN2CCN(c3ccccc3Cl)CC2)sc(C)c1C | inconclusive: 18.5 µM [inhibitor, partial curve, poor fit] | –
58 | COc1ccc(S(=O)(=O)Cc2ccc(C(=O)NCC(OC)OC)o2)cc1 | inactive | –
59 | NC(=O)CSc1nnc(-c2ccc(S(=O)(=O)N3CCOCC3)cc2)n1Cc1ccccc1 | inconclusive: 1.31 µM [inhibitor, partial curve] | –
60 | O=c1[nH]cccc1-c1nc2ccccc2n1Cc1ccc(F)cc1 | inactive | –
61 | COc1ccc(-n2ccc3ccccc32)cc1 | inactive | –
62 | COc1ccccc1NS(=O)(=O)c1cc(C(=O)NCc2ccncc2)ccc1C | inconclusive: 9.28 µM [inhibitor, single point] | –
63 | CCCCCC(=O)Nc1c(-c2cccs2)c(=O)c2ccccc2n1C | inconclusive: 18.5 µM [inhibitor, single point] | –
64 | CC(C)N1CCc2c(sc(NC(=O)c3ccc([N+](=O)[O-])o3)c2C(N)=O)C1 | active: 4.65 µM | –
65 | CC(C)(OC1OC(CO)C(O)C(O)C1O)[C@H]1Oc2ccc3ccc(=O)oc3c2[C@H]1O (stereo not given in full) | inactive | –
66 | CCN(CC)S(=O)(=O)c1cccc(NC(=O)C(=O)c2c(-c3ccccc3)cc3ccccn23)c1 | active: 7.38 µM | –
67 | CC(C)CNC(=S)N1CCC(Cc2ccccc2)CC1 | active: 14.7 µM | –
68 | COC(=O)c1cccc(C(=O)Oc2cccc(Br)c2)n1 | inconclusive: 9.28 µM [inhibitor, single point] | –
69 | O=C1CSc2ccc(S(=O)(=O)NCc3ccccc3Cl)cc2N1 | inconclusive: 18.5 µM [inhibitor, single point] | –
70 | CCOC(=O)c1c(C)n(C)c2ccc(OC)c([N+](=O)[O-])c12 | inconclusive: 1.65 µM [inhibitor, full curve] | –
